Reference: publication PMC7686362, “Recent evolution of a TET-controlled and DPPA3/STELLA-driven pathway of passive DNA demethylation in mammals” (Nature Communications, 2020)

Chains of the proteins cited; added tags and fusions are not shown.
UniProt P13864: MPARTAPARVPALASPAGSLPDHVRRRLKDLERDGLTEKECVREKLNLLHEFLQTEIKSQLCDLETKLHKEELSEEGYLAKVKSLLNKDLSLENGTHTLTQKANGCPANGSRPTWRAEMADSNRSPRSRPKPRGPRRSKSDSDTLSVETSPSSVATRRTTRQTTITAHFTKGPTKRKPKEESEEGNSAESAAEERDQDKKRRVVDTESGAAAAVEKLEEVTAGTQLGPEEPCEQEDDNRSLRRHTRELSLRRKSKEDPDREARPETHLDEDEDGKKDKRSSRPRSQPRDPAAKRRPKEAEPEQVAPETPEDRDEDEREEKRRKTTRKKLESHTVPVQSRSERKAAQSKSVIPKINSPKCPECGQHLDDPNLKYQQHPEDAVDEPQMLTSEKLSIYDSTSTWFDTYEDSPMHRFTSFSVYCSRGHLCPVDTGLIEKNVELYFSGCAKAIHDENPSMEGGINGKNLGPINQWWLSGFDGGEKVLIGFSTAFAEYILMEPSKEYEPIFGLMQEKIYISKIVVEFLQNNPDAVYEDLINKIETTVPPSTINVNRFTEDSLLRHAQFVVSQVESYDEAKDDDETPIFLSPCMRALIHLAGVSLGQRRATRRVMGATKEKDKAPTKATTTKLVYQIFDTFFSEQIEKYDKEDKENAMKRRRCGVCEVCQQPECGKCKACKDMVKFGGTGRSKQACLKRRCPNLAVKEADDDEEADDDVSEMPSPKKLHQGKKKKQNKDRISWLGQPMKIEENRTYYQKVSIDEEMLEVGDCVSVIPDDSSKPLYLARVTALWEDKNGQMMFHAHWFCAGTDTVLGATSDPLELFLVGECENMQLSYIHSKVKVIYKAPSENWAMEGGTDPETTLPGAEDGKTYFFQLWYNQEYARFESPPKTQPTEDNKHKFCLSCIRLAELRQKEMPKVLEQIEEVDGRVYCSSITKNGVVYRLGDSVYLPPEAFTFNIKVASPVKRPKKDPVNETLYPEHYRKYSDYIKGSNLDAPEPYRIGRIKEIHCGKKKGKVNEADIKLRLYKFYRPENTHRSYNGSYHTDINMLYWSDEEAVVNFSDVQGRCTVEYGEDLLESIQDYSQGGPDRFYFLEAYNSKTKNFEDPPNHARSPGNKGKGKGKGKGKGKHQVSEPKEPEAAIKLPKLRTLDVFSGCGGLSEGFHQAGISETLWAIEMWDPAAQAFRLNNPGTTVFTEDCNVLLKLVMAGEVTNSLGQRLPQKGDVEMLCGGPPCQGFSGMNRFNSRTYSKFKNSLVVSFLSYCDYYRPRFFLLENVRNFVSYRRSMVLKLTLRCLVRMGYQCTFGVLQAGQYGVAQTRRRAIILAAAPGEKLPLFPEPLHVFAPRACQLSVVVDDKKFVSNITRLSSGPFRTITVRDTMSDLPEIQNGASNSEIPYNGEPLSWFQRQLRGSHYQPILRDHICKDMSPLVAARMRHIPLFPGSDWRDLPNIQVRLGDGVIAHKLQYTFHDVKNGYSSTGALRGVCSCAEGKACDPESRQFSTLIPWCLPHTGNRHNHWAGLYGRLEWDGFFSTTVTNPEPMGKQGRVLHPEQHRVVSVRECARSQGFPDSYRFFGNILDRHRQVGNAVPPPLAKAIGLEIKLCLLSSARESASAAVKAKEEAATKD

Biological target: T1, 3xFLAG-DPPA3 (doxycycline-inducible, pSBtet-3xFLAG-Dppa3-IRES-DsRed-Express-PuroR) (mouse) (UniProt Q8QZY3)
T1 sequence: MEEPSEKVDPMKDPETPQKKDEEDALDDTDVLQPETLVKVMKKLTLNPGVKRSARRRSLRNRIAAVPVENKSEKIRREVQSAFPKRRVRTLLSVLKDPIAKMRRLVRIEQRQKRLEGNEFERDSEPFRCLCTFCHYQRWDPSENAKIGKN
Experiment: affinity purification with mass spectrometry; anti-FLAG versus control IgG immunoprecipitation from whole cell lysates of doxycycline-induced Dppa3-FLAG mouse ESCs crosslinked with 1% PFA (ChIP-MS); on-bead digestion, LC-MS/MS

binding: binds
Substance: DNMT1 (endogenous, mouse ESCs) (from UniProt P13864 1-1620)

These are yes or no findings as the source states them, for the method shown. In cells and extracts the contact can be indirect. A yes stands for co-enrichment or nearness to the bait. Other partners may have been found. Tags and fused reporters may be left off the sequences shown.
